Laboratory results reported in the supplement of paper PMC10849652.
Some of the results follow.

Protein sequences, listed by entry. Tags and fused reporters are not part of them. Lines headed by an entry give the natural chain unless they say otherwise; changes in a name come on top.
UniProt Q13158: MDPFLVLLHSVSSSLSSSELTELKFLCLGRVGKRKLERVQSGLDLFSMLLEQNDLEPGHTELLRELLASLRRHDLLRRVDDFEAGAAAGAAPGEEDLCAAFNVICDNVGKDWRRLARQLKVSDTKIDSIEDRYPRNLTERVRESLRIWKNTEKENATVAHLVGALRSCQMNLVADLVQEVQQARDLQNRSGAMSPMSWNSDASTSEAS
UniProt Q9NWS6: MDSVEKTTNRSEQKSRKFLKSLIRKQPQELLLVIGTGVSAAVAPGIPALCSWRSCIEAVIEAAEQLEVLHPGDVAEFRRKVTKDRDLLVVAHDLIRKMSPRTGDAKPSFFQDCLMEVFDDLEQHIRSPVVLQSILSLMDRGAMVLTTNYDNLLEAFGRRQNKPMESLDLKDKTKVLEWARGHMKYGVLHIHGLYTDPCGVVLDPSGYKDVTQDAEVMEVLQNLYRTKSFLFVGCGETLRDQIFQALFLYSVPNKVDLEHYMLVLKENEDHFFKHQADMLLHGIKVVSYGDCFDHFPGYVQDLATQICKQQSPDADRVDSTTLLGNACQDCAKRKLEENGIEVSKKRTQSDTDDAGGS
UniProt O94905: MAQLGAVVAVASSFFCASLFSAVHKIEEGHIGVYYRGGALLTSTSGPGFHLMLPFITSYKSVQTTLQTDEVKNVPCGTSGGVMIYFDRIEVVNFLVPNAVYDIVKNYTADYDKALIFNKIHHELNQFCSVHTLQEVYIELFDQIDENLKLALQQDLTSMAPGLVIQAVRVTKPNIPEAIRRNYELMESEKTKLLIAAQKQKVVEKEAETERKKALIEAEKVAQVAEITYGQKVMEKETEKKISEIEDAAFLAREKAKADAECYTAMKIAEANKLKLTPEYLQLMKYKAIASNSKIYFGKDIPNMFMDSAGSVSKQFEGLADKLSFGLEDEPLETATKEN
UniProt Q96A65: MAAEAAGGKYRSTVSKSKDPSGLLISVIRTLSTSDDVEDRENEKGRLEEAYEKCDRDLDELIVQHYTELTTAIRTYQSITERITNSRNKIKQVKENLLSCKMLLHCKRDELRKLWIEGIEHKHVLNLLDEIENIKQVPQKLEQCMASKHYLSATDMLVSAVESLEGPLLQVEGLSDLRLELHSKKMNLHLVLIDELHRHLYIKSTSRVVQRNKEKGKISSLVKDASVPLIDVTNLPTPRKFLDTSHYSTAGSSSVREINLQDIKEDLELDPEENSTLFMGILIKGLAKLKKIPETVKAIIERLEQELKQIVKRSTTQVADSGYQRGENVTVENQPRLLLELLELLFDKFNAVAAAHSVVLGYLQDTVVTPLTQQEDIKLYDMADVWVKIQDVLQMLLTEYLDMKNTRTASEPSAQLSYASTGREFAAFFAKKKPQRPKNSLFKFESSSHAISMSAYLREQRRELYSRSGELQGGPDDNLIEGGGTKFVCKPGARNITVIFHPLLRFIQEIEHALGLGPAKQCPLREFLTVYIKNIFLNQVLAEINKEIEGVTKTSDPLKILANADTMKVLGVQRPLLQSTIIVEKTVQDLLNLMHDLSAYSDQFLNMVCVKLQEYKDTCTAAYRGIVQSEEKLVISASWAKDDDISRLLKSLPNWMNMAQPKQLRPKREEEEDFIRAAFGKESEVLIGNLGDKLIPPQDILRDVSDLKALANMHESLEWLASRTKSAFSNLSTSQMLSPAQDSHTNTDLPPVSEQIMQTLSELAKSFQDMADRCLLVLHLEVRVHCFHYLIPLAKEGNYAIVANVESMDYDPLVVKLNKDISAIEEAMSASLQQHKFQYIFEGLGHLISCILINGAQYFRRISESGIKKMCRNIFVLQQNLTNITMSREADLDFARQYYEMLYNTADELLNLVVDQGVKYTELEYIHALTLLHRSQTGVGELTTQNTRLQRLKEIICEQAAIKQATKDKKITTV
UniProt Q13868, whole entry, looked up: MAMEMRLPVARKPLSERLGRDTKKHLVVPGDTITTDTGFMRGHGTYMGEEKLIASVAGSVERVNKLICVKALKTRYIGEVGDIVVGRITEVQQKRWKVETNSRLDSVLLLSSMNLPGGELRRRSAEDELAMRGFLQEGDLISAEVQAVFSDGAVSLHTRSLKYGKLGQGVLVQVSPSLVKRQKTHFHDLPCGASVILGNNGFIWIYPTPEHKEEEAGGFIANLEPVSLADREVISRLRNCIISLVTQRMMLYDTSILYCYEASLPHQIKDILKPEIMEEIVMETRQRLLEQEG
UniProt Q9BS26: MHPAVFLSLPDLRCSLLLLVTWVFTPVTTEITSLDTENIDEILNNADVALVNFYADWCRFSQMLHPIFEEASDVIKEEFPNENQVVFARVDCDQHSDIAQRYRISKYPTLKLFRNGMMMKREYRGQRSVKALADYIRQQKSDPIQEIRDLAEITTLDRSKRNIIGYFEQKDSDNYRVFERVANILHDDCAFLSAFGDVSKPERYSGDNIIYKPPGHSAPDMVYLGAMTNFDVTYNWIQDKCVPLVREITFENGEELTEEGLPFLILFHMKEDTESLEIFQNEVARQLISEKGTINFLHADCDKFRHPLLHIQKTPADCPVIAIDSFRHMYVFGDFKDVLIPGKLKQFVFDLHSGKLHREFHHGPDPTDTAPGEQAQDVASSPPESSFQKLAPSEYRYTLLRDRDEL
UniProt Q9H0X4: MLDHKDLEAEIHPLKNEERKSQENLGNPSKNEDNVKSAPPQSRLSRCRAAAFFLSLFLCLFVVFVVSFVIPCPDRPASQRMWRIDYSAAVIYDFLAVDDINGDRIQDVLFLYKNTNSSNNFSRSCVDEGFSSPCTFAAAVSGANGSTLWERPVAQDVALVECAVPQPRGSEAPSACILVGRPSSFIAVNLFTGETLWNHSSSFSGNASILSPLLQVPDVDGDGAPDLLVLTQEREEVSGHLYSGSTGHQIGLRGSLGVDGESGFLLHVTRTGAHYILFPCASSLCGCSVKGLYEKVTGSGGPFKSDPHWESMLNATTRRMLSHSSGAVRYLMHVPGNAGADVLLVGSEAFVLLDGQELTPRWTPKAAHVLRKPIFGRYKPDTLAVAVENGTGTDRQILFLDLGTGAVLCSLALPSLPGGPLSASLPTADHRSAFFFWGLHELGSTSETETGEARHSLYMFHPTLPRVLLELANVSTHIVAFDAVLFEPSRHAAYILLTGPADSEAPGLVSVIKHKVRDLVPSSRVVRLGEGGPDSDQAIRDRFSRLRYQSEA
UniProt Q6P2I3: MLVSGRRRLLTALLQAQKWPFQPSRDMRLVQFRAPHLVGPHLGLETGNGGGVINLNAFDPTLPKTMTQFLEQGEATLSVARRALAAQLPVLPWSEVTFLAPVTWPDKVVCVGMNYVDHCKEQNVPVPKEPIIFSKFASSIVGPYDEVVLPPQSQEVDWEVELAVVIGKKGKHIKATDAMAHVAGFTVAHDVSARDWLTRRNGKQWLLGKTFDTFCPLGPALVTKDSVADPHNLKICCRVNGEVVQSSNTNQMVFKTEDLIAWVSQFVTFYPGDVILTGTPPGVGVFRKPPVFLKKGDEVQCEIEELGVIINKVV
UniProt O75477: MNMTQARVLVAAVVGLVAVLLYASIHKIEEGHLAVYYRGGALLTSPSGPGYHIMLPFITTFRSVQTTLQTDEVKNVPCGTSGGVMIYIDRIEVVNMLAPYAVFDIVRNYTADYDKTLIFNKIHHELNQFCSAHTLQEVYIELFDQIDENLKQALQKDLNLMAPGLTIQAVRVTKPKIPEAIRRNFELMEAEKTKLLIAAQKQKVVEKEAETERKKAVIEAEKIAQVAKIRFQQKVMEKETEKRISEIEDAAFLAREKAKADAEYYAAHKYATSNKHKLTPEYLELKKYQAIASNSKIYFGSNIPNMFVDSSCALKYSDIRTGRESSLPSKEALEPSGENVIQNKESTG
UniProt Q9NRY5: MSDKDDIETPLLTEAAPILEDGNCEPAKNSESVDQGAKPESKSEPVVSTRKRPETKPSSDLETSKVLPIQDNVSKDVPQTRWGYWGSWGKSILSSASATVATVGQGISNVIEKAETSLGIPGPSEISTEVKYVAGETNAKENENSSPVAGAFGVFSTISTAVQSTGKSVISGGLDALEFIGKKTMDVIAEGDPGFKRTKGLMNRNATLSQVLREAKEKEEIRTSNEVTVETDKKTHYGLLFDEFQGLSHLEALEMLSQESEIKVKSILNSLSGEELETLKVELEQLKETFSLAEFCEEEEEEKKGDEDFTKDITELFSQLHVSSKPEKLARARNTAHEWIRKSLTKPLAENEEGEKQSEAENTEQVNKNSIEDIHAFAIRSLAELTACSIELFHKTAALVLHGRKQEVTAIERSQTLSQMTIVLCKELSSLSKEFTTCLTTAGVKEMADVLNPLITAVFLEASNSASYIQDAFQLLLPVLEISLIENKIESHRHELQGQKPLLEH
UniProt P38117: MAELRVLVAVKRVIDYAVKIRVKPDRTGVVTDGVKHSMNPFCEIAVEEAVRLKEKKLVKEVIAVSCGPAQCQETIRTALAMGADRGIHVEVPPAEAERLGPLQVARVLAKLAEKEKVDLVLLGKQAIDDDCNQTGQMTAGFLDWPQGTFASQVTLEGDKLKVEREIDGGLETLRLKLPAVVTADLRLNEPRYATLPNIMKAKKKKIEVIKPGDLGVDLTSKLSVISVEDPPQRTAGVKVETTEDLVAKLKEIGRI
UniProt Q96HE7: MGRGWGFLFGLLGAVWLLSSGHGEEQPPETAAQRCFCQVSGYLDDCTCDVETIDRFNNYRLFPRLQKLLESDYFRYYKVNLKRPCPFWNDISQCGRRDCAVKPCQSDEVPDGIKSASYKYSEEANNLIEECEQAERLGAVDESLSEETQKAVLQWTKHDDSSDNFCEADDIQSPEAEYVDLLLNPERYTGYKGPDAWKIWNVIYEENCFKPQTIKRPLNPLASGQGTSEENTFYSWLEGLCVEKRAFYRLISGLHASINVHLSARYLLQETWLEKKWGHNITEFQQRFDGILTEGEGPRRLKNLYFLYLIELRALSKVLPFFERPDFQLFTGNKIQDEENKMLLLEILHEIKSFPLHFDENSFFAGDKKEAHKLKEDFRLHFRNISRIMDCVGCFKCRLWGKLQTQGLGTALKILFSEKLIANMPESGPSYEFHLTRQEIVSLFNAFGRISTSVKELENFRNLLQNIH
UniProt Q6P587: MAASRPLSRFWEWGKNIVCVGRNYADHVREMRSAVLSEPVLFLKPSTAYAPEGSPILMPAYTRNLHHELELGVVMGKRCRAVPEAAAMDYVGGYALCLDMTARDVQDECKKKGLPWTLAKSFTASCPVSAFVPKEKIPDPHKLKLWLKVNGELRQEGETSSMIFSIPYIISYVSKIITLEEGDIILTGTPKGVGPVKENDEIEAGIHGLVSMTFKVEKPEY
UniProt Q96E09: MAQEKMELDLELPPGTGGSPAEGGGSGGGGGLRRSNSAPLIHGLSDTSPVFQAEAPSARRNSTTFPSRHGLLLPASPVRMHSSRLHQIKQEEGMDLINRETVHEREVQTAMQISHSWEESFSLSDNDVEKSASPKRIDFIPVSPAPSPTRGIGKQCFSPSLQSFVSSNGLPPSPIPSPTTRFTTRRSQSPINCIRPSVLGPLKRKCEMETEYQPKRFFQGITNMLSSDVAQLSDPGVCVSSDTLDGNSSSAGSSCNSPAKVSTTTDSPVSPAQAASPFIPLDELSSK
UniProt Q96GK7: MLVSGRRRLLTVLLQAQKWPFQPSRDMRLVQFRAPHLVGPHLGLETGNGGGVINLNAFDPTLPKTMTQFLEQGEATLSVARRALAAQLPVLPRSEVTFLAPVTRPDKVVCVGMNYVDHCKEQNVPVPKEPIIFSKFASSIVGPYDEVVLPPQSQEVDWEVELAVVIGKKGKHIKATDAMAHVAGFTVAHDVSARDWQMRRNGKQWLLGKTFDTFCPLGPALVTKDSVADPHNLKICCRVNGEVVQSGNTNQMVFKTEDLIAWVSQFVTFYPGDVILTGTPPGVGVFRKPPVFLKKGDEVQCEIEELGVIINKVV
UniProt Q9NQT5, whole entry, looked up: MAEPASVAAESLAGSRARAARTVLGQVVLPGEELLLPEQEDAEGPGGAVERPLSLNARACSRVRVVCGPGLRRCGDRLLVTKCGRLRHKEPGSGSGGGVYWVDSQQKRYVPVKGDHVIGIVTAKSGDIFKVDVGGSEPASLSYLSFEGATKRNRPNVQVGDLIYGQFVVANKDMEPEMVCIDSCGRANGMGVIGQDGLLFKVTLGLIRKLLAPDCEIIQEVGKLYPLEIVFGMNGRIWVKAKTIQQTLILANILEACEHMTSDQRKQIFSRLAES

How the values were obtained:
Experiment in all cases: log2 fold change, soluble protein after heating vs DMSO (PISA); higher = thermal stabilisation; K562 lysate, 10 uM; active = over 0.2 and 3.5 SD of the protein, either way, in both replicates (recomputed)
nilotinib = compound: Cc1cn(-c2cc(NC(=O)c3ccc(C)c(Nc4nccc(-c5cccnc5)n4)c3)cc(C(F)(F)F)c2)cn1 [nilotinib]
How it was run: (§1)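 The values are log-two fold changes in thermal stability compared with solvent controls and come from duplicates. They were obtained by TMTpro 16plex LC-MS/MS, with channel sums equalised, on the supernatant after 21,000xg for 90 min. That supernatant came from crude K562 extract at 1 mg/mL protein treated with 10 μM compound for 30 min, heated for 3 min across 48°C-58°C, pooled and brought to 0.5% NP-40 at 4°C.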

[1] = compound: Cc1nc(Nc2n[nH]c3c2CN(C(=O)N[C@H](CN(C)C)c2ccccc2)C3(C)C)c2sccc2n1
How it was run: as §1

dasatinib = compound: Cc1nc(Nc2ncc(C(=O)Nc3c(C)cccc3Cl)s2)cc(N2CCN(CCO)CC2)n1 [dasatinib]
How it was run: as §1

[2] = compound: Cc1ncc(-c2ccnc(Nc3ccc(S(C)(=O)=O)cc3)n2)n1C(C)C
How it was run: as §1

[3] = compound: Cn1cc(-c2ccc3c(c2)CCN3C(=O)Cc2cccc(C(F)(F)F)c2)c2c(N)ncnc21
How it was run: as §1

quisinostat = compound: Cn1cc(CNCC2CCN(c3ncc(C(=O)NO)cn3)CC2)c2ccccc21 [quisinostat]
How it was run: as §1

tipifarnib = compound: Cn1cncc1[C@@](N)(c1ccc(Cl)cc1)c1ccc2c(c1)c(-c1cccc(Cl)c1)cc(=O)n2C [tipifarnib]
How it was run: as §1

[4] = compound: NC(=O)Nc1cc(-c2cccc(F)c2)sc1C(=O)N[C@H]1CCCNC1
How it was run: as §1

[5] = compound: NC(=O)c1cnc(N[C@@H]2CCCC[C@@H]2N)nc1Nc1cccc(-n2nccn2)c1
How it was run: as §1

[6] = compound: NC1(c2ccc(-c3nc4ccn5c(=O)[nH]nc5c4cc3-c3ccccc3)cc2)CCC1
How it was run: as §1

Measured: log2 fold change

EXOC2 (UniProt Q96KP1)
inactive: nilotinib 0.009 | [1] 0.018 | dasatinib -0.041 | [2] -0.009 | [3] 0.022 | quisinostat -0.088 | tipifarnib -0.022 | [4] 0.062 | [5] -0.003 | [6] -0.029

FADD (UniProt Q13158)
inactive: nilotinib -0.02 | [1] -0.038 | dasatinib 0.002 | [2] -0.027 | [3] 0.003 | quisinostat -0.008 | tipifarnib -0.03 | [4] 0.022 | [5] 0.029 | [6] -0.031

ETF1 (UniProt P62495)
inactive: nilotinib -0.014 | [1] -0.015 | dasatinib -0.006 | [2] -0.018 | [3] -0.017 | quisinostat -0.018 | tipifarnib 0 | [4] -0.006 | [5] 0.005 | [6] -0.001

FAM118A (UniProt Q9NWS6)
inactive: nilotinib -0.017 | [1] -0.03 | dasatinib -0.043 | [2] -0.003 | [3] -0.082 | quisinostat -0.103 | tipifarnib 0.016 | [4] 0.013 | [5] 0.003 | [6] -0.023

ERLIN2 (UniProt O94905)
inactive: nilotinib -0.009 | [1] 0.001 | dasatinib -0.013 | [2] -0.019 | [3] 0.03 | quisinostat 0.021 | tipifarnib 0.012 | [4] -0.038 | [5] 0.012 | [6] -0.01

EXOC4 (UniProt Q96A65)
inactive: nilotinib 0.015 | [1] -0.012 | dasatinib -0.083 | [2] 0.015 | [3] 0.072 | quisinostat -0.009 | tipifarnib -0.036 | [4] 0.053 | [5] 0.013 | [6] -0.068

EXOSC2 (UniProt Q13868)
inactive: nilotinib 0.028 | [1] -0.025 | dasatinib 0.027 | [2] -0.008 | [3] -0.01 | quisinostat 0.002 | tipifarnib 0 | [4] -0.007 | [5] -0.019 | [6] 0.005

Two consecutive entries out of the list so far, for reference:
FAM118A (UniProt Q9NWS6)
inactive: nilotinib -0.017 | [1] -0.03 | dasatinib -0.043 | [2] -0.003 | [3] -0.082 | quisinostat -0.103 | tipifarnib 0.016 | [4] 0.013 | [5] 0.003 | [6] -0.023

ERLIN2 (UniProt O94905)
inactive: nilotinib -0.009 | [1] 0.001 | dasatinib -0.013 | [2] -0.019 | [3] 0.03 | quisinostat 0.021 | tipifarnib 0.012 | [4] -0.038 | [5] 0.012 | [6] -0.01

(next part)

ERP44 (UniProt Q9BS26)
inactive: nilotinib 0.027 | [1] -0.008 | dasatinib 0.002 | [2] -0.019 | [3] -0.003 | quisinostat -0.032 | tipifarnib -0.022 | [4] -0.013 | [5] 0.006 | [6] 0.005

EXOC8 (UniProt Q8IYI6)
inactive: nilotinib 0.015 | [1] -0.017 | dasatinib -0.044 | [2] -0.011 | [3] -0.007 | quisinostat 0.021 | tipifarnib -0.014 | [4] 0.025 | [5] 0.023 | [6] -0.048

FAM49B (UniProt Q9NUQ9)
inactive: nilotinib 0.005 | [1] -0.009 | dasatinib 0.036 | [2] -0.002 | [3] 0.006 | quisinostat 0.028 | tipifarnib 0.016 | [4] -0.006 | [5] -0.004 | [6] 0

FAM234A (UniProt Q9H0X4)
inactive: nilotinib -0.001 | [1] -0.065 | dasatinib -0.07 | [2] -0.049 | [3] 0.036 | quisinostat -0.009 | tipifarnib 0.064 | [4] -0.029 | [5] 0.033 | [6] -0.007

ERO1B (UniProt Q86YB8)
inactive: nilotinib -0.2 | [1] -0.058 | dasatinib 0.026 | [2] 0.209 | [3] 0.013 | quisinostat -0.068 | tipifarnib 0.072 | [4] 0.017 | [5] 0.061 | [6] 0.003

FAHD2B (UniProt Q6P2I3)
inactive: nilotinib -0.039 | [1] 0.104 | dasatinib -0.344 | [2] 0.037 | [3] 0.11 | quisinostat 0.075 | tipifarnib 0.025 | [4] 0.117 | [5] -0.013 | [6] -0.02

ERLIN1 (UniProt O75477)
inactive: nilotinib 0.011 | [1] -0.031 | dasatinib -0.01 | [2] -0.034 | [3] 0.033 | quisinostat 0.107 | tipifarnib 0.049 | [4] -0.047 | [5] -0.009 | [6] 0.035

FAM114A2 (UniProt Q9NRY5)
inactive: nilotinib 0.152 | [1] 0.053 | dasatinib -0.028 | [2] 0.031 | [3] 0.002 | quisinostat 0.02 | tipifarnib -0.231 | [4] 0 | [5] 0.009 | [6] -0.071

ERMP1 (UniProt Q7Z2K6)
inactive: nilotinib 0.049 | [1] -0.035 | dasatinib -0.006 | [2] 0.019 | [3] -0.011 | quisinostat -0.04 | tipifarnib -0.089 | [4] -0.002 | [5] -0.005 | [6] -0.021

ETFB (UniProt P38117)
inactive: nilotinib -0.003 | [1] -0.017 | dasatinib -0.003 | [2] -0.015 | [3] -0.023 | quisinostat 0.081 | tipifarnib 0.024 | [4] -0.041 | [5] 0.011 | [6] -0.004

ERO1A (UniProt Q96HE7)
inactive: nilotinib 0.008 | [1] -0.012 | dasatinib 0.006 | [2] -0.027 | [3] 0.031 | quisinostat -0.03 | tipifarnib -0.007 | [4] 0.012 | [5] -0.01 | [6] 0.009

ERP29 (UniProt P30040)
inactive: nilotinib 0.042 | [1] -0.015 | dasatinib 0.011 | [2] -0.012 | [3] 0.006 | quisinostat 0.06 | tipifarnib 0.028 | [4] -0.006 | [5] -0.019 | [6] 0.012

ESYT2 (UniProt H7BXI1)
inactive: nilotinib 0.016 | [1] -0.017 | dasatinib -0.01 | [2] 0.037 | [3] 0.02 | quisinostat 0.027 | tipifarnib 0.009 | [4] -0.015 | [5] -0.031 | [6] -0.051

FAM133B (UniProt Q5BKY9)
inactive: nilotinib -0.032 | [1] -0.045 | dasatinib 0.14 | [2] -0.087 | [3] -0.058 | quisinostat 0.092 | tipifarnib -0.002 | [4] -0.024 | [5] -0.053 | [6] 0.006

FAHD1 (UniProt Q6P587)
inactive: nilotinib 0.055 | [1] -0.027 | dasatinib 0.028 | [2] 0 | [3] -0.149 | quisinostat -0.296 | tipifarnib 0.022 | [4] 0.073 | [5] -0.019 | [6] -0.093

FAM136A (UniProt Q96C01)
inactive: nilotinib -0.02 | [1] -0.02 | dasatinib 0.021 | [2] -0.013 | [3] 0.001 | quisinostat -0.042 | tipifarnib 0.017 | [4] 0.029 | [5] 0.001 | [6] -0.006

FAM122A (UniProt Q96E09)
inactive: nilotinib -0.034 | [1] -0.017 | dasatinib 0.003 | [2] -0.06 | [3] -0.066 | quisinostat -0.032 | tipifarnib 0 | [4] 0.011 | [5] -0.004 | [6] -0.013

FAHD2A (UniProt Q96GK7)
inactive: nilotinib 0.001 | [1] -0.038 | dasatinib 0.023 | [2] 0.005 | [3] -0.045 | quisinostat -0.001 | tipifarnib -0.006 | [4] -0.016 | [5] 0.017 | [6] -0.033

FAM53C (UniProt Q9NYF3)
inactive: nilotinib -0.099 | [1] -0.212 | dasatinib -0.074 | [2] 0.204 | [3] -0.019 | quisinostat -0.09 | tipifarnib -0.13 | [4] -0.009 | [5] -0.169 | [6] -0.043

EXOSC3 (UniProt Q9NQT5)
inactive: nilotinib 0 | [1] -0.01 | dasatinib -0.028 | [2] -0.03 | [3] -0.037 | quisinostat -0.083 | tipifarnib -0.037 | [4] 0.036 | [5] 0.027 | [6] -0.006
